No constants are given. Whether binding was seen depends on the method and setting. Some results given as binding are weak or reduced against the parent protein; the word gives no strength.
Molecular target: T1, purified recombinant mouse nephronectin (mouse) (UniProt Q91V88)
T1 sequence: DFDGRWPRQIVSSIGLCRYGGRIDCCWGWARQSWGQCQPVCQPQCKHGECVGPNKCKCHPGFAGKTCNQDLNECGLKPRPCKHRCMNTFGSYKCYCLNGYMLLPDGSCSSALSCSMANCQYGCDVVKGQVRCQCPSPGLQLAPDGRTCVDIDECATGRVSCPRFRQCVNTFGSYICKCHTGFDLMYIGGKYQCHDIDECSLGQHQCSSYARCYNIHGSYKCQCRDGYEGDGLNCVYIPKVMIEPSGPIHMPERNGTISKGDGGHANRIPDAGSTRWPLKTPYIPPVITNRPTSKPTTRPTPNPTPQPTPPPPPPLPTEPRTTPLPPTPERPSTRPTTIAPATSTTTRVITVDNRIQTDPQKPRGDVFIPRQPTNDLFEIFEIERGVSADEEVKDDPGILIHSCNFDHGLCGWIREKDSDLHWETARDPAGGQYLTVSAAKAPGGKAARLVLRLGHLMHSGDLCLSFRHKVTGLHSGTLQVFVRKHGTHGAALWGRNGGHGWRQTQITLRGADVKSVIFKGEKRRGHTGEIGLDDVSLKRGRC
Test: cell attachment assay; cells bearing the integrin added to 96-well plates coated with the purified ligand; concentration of the small molecule CWHM-12 or CWHM-680 varied; ligand coating optimised with function-neutralizing antibodies (for α8β1 by comparison with parental nontransfected cells); only the target purified

Sequences of proteins named here, by UniProt entry; tags and fusion partners are left off. A change or cut given only in a name is not applied to a line headed by its entry.
UniProt P53708: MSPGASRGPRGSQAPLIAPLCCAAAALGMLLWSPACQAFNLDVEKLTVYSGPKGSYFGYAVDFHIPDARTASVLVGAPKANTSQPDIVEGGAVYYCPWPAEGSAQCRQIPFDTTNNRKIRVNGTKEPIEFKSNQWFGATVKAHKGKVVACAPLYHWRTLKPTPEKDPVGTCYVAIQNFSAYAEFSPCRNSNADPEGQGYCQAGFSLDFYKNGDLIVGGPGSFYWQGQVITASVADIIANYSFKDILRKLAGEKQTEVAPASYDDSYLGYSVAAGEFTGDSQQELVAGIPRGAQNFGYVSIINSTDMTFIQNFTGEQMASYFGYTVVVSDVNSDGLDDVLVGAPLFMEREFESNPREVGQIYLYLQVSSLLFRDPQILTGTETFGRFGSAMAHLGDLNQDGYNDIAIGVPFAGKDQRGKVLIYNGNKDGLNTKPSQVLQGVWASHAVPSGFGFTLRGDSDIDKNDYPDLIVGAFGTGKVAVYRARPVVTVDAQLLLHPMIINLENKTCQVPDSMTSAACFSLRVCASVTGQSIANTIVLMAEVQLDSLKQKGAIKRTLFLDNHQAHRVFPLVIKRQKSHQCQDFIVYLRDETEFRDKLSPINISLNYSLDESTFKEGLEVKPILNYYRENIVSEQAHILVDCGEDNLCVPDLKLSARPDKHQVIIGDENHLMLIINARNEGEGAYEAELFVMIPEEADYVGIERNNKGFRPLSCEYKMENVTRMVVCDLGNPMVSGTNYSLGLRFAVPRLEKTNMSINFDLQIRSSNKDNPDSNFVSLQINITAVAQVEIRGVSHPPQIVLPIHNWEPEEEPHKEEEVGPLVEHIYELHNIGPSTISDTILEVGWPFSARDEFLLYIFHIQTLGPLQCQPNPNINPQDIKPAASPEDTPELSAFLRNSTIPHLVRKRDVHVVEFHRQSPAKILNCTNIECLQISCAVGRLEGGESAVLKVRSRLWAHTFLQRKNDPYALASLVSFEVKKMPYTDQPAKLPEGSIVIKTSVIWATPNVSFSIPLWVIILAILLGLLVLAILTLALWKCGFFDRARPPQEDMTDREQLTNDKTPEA

binding: binds
Substance: integrin α8β1 (from UniProt P53708 39-1063; P05556 21-798) (receptor)
